The list shows a part of the results. For some of these results: Construct or isoform of the protein are uncertain.
What was measured:
Experiment in all cases: protein microarray (ProtoArray v5.0), streptavidin-Alexa Fluor 647
Conditions in all cases: 3'-biotin; 20 mM Tris (pH 7.5), 5 mM MgCl2, 100 mM KCl, 0.1% Tween-20, A/T-rich and random oligonucleotide blockers; temperature not stated; high values mean tight binding
PRCP (human) = test system: PRCP (human)
PRDX2 (human) = test system: PRDX2 (human)
PRDX3 (human) = test system: PRDX3 (human)
[1] = test system: PRELI domain-containing protein 2 (human)
PRKACB (human) = test system: PRKACB (human)
PRKRIR (human) = test system: PRKRIR (human)
PRMT7 (human) = test system: PRMT7 (human)
PROCR (human) = test system: PROCR (human)
PRPSAP2 (human) = test system: PRPSAP2 (human)
PRRG2 = target: T1, PRRG2 (UniProt O14669)
T1 sequence: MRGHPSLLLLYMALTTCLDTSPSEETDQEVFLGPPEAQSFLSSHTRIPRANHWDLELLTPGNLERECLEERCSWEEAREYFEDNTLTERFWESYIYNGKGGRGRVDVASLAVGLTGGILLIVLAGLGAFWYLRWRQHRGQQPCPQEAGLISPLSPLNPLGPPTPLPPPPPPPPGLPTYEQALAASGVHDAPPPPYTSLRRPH

Sequence: GGGGACAGGGGTATGGGGAGGGG [G4-3 biotinylated (CtG)]
- binding signal (PRCP (human)): -0.327 z-score
- binding signal (PRDX2 (human)): -0.338 z-score
- binding signal (PRDX3 (human)): -0.332 z-score
- binding signal [1]: -0.312 z-score
- binding signal (PRKACB (human)): -0.303 z-score
- binding signal (PRKRIR (human)): -0.303 z-score
- binding signal (PRMT7 (human)): -0.335 z-score
- binding signal (PROCR (human)): -0.312 z-score
- binding signal (PRPSAP2 (human)): -0.318 z-score
- binding signal (PRRG2): -0.336 z-score

Reference: paper PMC5996148
